Assay results from paper PMC11024185.
Residue numbers refer to the chain shown, from its start. These are yes or no findings as the source states them, for the method shown. Binding seen in cells or lysates may run through a third protein. A yes stands for co-enrichment or nearness to the bait. Other partners may have been found. Where a sequence is shown, tags or fusion partners need not be part of it.

The chains behind the UniProt entries cited, without tags or fusion partners.
UniProt Q07915: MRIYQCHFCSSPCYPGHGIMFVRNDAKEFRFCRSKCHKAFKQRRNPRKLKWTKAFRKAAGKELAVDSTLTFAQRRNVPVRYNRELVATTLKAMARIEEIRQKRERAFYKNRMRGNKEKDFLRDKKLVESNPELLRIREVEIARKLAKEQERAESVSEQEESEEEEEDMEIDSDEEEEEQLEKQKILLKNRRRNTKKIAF

Key:
[1] = target: T1, Noc2-3xFLAG-3C-2xProteinA (S. cerevisiae) (UniProt P39744); experiment: affinity purification with mass spectrometry; split-tag purification of pre-60S particles from SPB4-AID yeast without and with auxin (0.5 mM IAA, 45 min): IgG Sepharose on Noc2-2xProteinA, 3C cleavage, then Strep-Tactin on 2xStrep-Dbp10; buffers with 50 µM ADP-BeF3; Coomassie-stained 4-20% SDS-PAGE, bands named by molecular weight, ambiguous bands by mass spectrometry; auxin gave ~10-fold enrichment of the particle
T1 sequence: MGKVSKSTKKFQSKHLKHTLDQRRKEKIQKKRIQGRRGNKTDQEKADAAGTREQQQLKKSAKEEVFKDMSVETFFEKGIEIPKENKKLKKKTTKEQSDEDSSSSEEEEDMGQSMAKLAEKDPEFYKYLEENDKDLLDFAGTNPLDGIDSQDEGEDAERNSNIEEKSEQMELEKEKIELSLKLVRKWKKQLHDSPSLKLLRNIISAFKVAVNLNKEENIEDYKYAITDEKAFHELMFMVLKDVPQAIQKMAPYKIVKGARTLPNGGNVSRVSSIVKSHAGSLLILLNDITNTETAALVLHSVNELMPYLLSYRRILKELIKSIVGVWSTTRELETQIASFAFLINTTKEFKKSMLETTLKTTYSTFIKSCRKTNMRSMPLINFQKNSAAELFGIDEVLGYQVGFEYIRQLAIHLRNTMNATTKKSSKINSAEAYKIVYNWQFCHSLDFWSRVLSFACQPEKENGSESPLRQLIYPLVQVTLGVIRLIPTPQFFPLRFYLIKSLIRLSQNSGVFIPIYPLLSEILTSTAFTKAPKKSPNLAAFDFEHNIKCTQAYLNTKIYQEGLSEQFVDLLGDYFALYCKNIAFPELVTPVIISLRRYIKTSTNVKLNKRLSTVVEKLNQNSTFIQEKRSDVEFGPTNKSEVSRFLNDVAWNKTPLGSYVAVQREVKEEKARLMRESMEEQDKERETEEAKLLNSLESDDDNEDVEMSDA

[2] = target: T2, Ssf1-3xFLAG-3C-2xProteinA (S. cerevisiae) (UniProt P38789); experiment: affinity purification with mass spectrometry; purification of pre-60S intermediates from a drs1 R569Q strain by tags on Drs1 R569Q (3x-Strep) and Ssf1 (2x-ProtA); Coomassie-stained 4-20% SDS-PAGE
T2 sequence: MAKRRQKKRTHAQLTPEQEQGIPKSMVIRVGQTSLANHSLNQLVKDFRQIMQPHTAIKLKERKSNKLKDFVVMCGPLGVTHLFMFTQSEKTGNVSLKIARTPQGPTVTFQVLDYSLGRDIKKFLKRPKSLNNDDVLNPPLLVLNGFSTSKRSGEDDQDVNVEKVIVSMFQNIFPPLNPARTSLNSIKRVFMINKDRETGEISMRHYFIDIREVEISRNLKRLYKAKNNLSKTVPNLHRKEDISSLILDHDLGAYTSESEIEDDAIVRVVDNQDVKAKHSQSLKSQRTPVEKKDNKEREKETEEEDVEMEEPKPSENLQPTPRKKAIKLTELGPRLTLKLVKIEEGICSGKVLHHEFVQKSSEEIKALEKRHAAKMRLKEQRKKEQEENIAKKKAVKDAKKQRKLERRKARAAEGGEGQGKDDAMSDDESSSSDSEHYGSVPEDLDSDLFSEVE

[3] = target: T2, Ssf1-3xFLAG-3C-2xProteinA (S. cerevisiae); experiment: affinity purification with mass spectrometry; split-tag purification of pre-60S particles from yeast overexpressing dbp10 R522V (β-estradiol, 1 h): IgG Sepharose on Ssf1-2xProteinA, 3C cleavage, then Strep-Tactin on Dbp10 R522V, bdNEDD8 protease elution; 50 mM Bis-Tris-Propane pH 8.0, 125 mM NaCl, 25 mM KCl, 10 mM MgCl2; Coomassie-stained 4-20% SDS-PAGE, bands named by molecular weight, ambiguous bands by mass spectrometry
[4] = target: T2, Ssf1-3xFLAG-3C-2xProteinA (S. cerevisiae); experiment: affinity purification with mass spectrometry; split-tag purification of pre-60S particles from steady state DBP10 yeast: IgG Sepharose on Ssf1-2xProteinA, 3C cleavage, then Strep-Tactin on 2xStrep-Dbp10, desthiobiotin elution; buffers with 50 µM ADP-BeF3; Coomassie-stained 4-20% SDS-PAGE, bands named by molecular weight, ambiguous bands by mass spectrometry
[5] = target: T3, Drs1 R569Q (3x-Strep-Drs1 R569Q) (S. cerevisiae) (UniProt P32892); experiment: affinity purification with mass spectrometry; purification of pre-60S intermediates from a drs1 R569Q strain by tags on Drs1 R569Q (3x-Strep) and Ssf1 (2x-ProtA); Coomassie-stained 4-20% SDS-PAGE
T3 sequence: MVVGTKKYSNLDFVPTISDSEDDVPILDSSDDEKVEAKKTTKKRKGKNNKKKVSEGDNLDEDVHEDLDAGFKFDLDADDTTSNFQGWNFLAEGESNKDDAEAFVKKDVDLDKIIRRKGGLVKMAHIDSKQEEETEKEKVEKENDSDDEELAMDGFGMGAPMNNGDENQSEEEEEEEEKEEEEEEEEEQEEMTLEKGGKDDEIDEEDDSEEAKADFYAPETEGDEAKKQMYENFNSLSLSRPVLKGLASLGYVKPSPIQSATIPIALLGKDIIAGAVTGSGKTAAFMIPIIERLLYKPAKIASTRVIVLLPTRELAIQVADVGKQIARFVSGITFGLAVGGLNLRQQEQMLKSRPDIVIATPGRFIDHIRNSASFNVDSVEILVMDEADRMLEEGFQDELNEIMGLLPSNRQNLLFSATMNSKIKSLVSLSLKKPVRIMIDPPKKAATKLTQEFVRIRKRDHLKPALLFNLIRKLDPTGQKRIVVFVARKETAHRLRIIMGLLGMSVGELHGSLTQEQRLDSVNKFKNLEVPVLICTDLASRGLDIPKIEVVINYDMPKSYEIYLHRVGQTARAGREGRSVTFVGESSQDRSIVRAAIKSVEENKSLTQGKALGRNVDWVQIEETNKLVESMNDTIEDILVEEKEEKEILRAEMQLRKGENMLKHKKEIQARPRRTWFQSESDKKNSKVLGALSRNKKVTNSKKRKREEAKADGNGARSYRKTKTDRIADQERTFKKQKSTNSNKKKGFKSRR

[6] = target: T4, Dbp10 R522V (sfGFP-3xSTREP-bdNEDD8-MYC-dbp10 R522V) (S. cerevisiae) (UniProt Q12389); experiment: affinity purification with mass spectrometry; split-tag purification of pre-60S particles from yeast overexpressing dbp10 R522V (β-estradiol, 1 h): IgG Sepharose on Ssf1-2xProteinA, 3C cleavage, then Strep-Tactin on Dbp10 R522V, bdNEDD8 protease elution; 50 mM Bis-Tris-Propane pH 8.0, 125 mM NaCl, 25 mM KCl, 10 mM MgCl2; Coomassie-stained 4-20% SDS-PAGE, bands named by molecular weight, ambiguous bands by mass spectrometry
T4 sequence: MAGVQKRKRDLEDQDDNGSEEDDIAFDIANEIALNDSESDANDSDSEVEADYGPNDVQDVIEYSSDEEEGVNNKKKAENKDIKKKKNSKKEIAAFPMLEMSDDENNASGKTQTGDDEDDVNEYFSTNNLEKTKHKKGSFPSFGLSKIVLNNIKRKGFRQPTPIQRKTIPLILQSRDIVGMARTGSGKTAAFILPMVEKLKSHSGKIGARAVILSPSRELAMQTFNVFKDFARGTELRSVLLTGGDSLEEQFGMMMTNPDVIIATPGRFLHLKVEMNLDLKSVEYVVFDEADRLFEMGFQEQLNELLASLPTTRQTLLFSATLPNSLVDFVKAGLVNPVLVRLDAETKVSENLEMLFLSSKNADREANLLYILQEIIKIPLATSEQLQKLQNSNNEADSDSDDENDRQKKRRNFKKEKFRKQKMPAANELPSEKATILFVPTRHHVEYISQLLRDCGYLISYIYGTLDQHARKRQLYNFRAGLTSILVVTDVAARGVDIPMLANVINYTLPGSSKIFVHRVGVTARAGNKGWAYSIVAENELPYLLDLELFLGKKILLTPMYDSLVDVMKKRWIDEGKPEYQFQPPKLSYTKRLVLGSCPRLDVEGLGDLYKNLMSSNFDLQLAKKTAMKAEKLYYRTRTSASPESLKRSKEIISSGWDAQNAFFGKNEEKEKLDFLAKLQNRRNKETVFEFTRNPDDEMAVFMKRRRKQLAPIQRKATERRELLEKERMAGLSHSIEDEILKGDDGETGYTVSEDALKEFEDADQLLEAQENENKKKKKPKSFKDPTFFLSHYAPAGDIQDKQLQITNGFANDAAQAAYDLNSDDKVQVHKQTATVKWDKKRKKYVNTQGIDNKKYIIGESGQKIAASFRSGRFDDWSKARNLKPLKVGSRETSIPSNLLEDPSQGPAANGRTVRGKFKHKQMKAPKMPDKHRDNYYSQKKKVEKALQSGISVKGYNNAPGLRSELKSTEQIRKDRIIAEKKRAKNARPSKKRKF

[7] = target: T5, Dbp10 (2xStrep-bdNEDD8-DBP10) (S. cerevisiae) (UniProt Q12389); experiment: affinity purification with mass spectrometry; split-tag purification of pre-60S particles from steady state DBP10 yeast: IgG Sepharose on Ssf1-2xProteinA, 3C cleavage, then Strep-Tactin on 2xStrep-Dbp10, desthiobiotin elution; buffers with 50 µM ADP-BeF3; Coomassie-stained 4-20% SDS-PAGE, bands named by molecular weight, ambiguous bands by mass spectrometry
T5 sequence: T4 sequence with V522R

Measured: binding

Rlp24 (from UniProt Q07915 1-199)
binds: [1] | [2] | [3] | [4]

B1: Ssf1-3xFLAG-3C-2xProteinA (protein, UniProt P38789 1-453)
chain: T2 sequence
binds: [5] | [6] | [7]

B2: Nsa1 (protein, UniProt P53136 1-463)
chain: MRLLVSCVDSGSIKEVLCNIGTDTSVQSALQPFHVAPHLAEGLKAYVDRMWVISEDEAILARNSGVVELVKISKHLKENEALQVDPKGESKNEKSLSDDLPKFDISEFEITSSVSDLFDDAKLESLSSKSVKRTKLVDGFVTLCPIKKDSSNNTFVAATKSGLLHIIKKGEDKKLIKLASLGLKAPVEFLQLYDLEDTDTDKYIFAYGGEENLIKLVEIDSSFQSLKQIWEAKNVKNDRLDMRVPVWPMALRFLEPSPGKTEKGKLNYQFAAITRWSHLTKYSTQHGRKPFAQIDLLPNREPLSQMEVFDAKGENVVSSLGNFQSETFNELNVITTDYKKNVFKFDGNGRMLGKVGRDDITGSSTYIHVHDGKYLLQGGLDRYVRIFDIKTNKMLVKVYVGSRINFIVMLDDVEIEMPLSPSAKAAKGKQKRKVTELEEDADELWNKLEGKVAASKASKKSKI
binds: [2] | [5] | [4] | [7]
